Measured values taken from patent EP4778940A1 (Artivila (ShenZhen) Innovation Center, Ltd., dated 2026).
Residue numbers refer to the chain shown, from its start. Results are given in words; binding and its absence hold for the method and conditions named. A result given as binding can be weak or reduced; the word gives no strength.

B1: positive control antibody 2C4 (antibody, V domains shown)
VH: EVHLQQSGPELEKPGVSVKISCKASGFSFTDYNMNWVKQSSGKSLEWIGNIDPYYGRINYNQKFKGKATLSVDKSSSTAYMHLKSLTSEDSAVYYCATGAYTSGYSWFAYWGQGTLVTVSS
VL: ENVLTQSPGIMAASLGEKVTMTCSASSSVSSSYLHWYQQRSGASPKPLIHRTSNLASGVPARFSGSGSGTSYSLTISSVEAEDDATYYCQQWSGYPFTFGSGTKLEIK
notes: also called positive control 2C4; positive antibody
B2: Ab01-63M2 (antibody, V domains shown)
VH: DVQLQESGGGLVQPGGSLRLSCAASGFTLDYYVIGWFRQAPGKEREGVSCISSSDGSTYSADSVKGRFTISRDNAENTVYLQMNSLKPEDTAVYYCAARRSPGIEGWCALPFFFGSWGQGTQVTVSS
notes: also called candidate parental antibody Ab01-63M2
B3: Ab01-7M2 (antibody, V domains shown)
VH: DVQLQESGGGLVQPGGSLRLSCAASGFTFSSTPMYWYRQAPGKERDFVAIMAPGGYEDIADSVRGRFSISRDNGNNTMYLQMNSLKPEDTALYYCRALNSWGQGTQVTVSS
B4: Ab01-84M2 (antibody, V domains shown)
VH: DVQLQESGGGLVQAGGSLRLSCAASGFPFDDYSIGWFRQAPGKAREGISCISSTHGTTYYTDSVKDRFTITRDNAKNTVYLQMNNLKPEDAAVYYCAAGLDGLACHRRDSGSRYRTQLYDYWGQGTQVTVSS
B5: Ab01-91M2 (antibody, V domains shown)
VH: DVQLQESGGGLVQPGGSLRLSCAASGFTFSNYLMGWYRQAPGKERELVAAINSAGYSTVYAESVKGRFTTSRDNAKSMVYLQMNSLKAEDTAVYYCNARYDRWHDYWGQGTQVTVSS
B6: Ab01-121M1 (antibody, V domains shown)
VH: DVQLQESGGGLVQPGGSLRLSCAASGSRFSFNVMGWHRQAPGKQRELVALISSGGTANYADSVKGRFTISRDNAGNTMYLQMNTLKPEDTAVYYCTATTPVGQYWGQGTQVTVSS
B7: Ab01-122M1 (antibody, V domains shown)
VH: DVQLQESGGGLVQPGGSLKLSCTASRRIFTFTAAGWYRQAPGQQREFVAVIANGGHTNYADSVKGRFTISRDNAKNTVYLQMNSLKPEDTAVYYCNTPPAFGSWGPGTQVTVSS
B8: Ab01-126M1 (antibody, V domains shown)
VH: B7 VH with K19R, R26T, T32S, Q43K, A52T, N53G, N76D
B9: Ab01-110M1 (antibody, V domains shown)
VH: DVQLQESGGGLVQTGGSLRLSCAAPGFTLDDYAIGWFRQAPGKERERISCITSSTNRTYYANSVKGRFTISRDSAKNTVYLQMNSLKPEDTAVYYCAAEPILCVLWSAGGAMDYWGKGTQVTVSS

What follows are binders tested against cynomolgus monkey HHLA2 on HEK293 cells (HEK293-cyHHLA2) (cynomolgus monkey) (assay: flow cytometry on HEK293-cyHHLA2 cells).

binding, binds:
B1
B2
B3
B4
B5
B6
B7
B8
B9
